Reference: the supplement of paper PMC10849652
Some of the results follow.

Amino acid sequences for entries named in this document (tags omitted). A change or cut given only in a name is not applied to a line headed by its entry.
UniProt Q9Y6K5: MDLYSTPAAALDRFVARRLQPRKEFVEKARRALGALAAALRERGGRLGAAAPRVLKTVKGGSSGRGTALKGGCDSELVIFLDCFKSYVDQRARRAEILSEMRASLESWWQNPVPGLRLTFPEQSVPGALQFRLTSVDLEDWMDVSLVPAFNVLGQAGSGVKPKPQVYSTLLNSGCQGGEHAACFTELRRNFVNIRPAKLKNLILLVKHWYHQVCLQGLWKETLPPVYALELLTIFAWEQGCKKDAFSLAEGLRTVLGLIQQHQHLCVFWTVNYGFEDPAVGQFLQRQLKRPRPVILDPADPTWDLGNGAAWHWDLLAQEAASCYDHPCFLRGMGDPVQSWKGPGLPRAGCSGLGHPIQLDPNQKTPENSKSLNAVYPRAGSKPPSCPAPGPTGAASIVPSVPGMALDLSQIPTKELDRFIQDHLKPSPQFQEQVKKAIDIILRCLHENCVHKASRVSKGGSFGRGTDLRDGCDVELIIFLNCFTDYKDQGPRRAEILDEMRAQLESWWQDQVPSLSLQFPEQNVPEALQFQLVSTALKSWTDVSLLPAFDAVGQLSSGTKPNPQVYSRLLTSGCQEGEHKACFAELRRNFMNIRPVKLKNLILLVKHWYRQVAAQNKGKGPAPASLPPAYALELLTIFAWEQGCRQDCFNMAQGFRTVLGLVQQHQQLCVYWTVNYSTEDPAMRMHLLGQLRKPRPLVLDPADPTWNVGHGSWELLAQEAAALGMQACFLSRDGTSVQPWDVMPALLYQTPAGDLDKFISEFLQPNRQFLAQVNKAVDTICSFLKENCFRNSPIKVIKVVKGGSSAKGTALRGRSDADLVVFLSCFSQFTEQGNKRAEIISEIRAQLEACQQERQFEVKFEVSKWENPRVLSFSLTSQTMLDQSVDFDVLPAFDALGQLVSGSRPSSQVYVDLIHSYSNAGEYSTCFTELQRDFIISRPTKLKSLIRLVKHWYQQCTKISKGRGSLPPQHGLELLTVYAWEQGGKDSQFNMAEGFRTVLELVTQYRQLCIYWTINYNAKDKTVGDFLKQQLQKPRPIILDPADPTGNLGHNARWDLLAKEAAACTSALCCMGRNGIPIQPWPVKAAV
UniProt Q8IVL6: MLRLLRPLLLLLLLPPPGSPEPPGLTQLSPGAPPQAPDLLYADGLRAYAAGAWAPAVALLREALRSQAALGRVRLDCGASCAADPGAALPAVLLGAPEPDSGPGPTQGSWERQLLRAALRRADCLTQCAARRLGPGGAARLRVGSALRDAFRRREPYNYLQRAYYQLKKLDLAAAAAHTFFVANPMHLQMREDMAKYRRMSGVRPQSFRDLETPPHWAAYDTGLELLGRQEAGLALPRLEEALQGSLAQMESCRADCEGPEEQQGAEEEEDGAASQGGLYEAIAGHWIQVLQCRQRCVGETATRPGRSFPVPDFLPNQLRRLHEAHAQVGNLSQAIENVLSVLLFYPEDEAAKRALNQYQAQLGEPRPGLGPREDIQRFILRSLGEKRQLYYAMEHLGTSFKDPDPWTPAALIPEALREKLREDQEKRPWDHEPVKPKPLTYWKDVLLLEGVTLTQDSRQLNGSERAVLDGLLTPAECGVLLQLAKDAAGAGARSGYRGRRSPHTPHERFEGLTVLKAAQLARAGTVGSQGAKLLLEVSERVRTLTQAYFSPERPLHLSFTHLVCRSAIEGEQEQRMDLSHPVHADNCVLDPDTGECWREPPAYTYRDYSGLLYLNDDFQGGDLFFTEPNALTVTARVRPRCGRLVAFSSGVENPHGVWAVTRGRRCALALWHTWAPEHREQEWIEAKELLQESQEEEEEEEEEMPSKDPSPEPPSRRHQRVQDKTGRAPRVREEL
UniProt Q8NE18: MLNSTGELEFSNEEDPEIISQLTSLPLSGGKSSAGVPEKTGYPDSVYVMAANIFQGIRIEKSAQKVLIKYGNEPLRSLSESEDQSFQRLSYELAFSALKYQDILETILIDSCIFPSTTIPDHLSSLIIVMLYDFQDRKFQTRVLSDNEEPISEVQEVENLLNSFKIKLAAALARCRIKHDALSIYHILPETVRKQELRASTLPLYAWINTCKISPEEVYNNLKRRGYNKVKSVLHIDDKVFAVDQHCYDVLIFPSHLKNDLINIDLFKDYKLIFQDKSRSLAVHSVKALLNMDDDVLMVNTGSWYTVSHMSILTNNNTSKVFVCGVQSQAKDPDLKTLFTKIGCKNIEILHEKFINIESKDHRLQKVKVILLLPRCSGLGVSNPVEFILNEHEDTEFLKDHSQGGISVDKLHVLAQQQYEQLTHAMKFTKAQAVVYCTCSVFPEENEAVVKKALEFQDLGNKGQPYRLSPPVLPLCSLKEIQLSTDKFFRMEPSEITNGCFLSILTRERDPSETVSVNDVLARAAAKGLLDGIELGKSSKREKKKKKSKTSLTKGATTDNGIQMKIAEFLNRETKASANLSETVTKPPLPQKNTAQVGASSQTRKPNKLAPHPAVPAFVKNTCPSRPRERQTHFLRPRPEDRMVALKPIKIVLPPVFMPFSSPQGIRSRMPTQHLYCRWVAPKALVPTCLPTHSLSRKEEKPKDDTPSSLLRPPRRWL
UniProt Q9H1P3, whole entry, looked up: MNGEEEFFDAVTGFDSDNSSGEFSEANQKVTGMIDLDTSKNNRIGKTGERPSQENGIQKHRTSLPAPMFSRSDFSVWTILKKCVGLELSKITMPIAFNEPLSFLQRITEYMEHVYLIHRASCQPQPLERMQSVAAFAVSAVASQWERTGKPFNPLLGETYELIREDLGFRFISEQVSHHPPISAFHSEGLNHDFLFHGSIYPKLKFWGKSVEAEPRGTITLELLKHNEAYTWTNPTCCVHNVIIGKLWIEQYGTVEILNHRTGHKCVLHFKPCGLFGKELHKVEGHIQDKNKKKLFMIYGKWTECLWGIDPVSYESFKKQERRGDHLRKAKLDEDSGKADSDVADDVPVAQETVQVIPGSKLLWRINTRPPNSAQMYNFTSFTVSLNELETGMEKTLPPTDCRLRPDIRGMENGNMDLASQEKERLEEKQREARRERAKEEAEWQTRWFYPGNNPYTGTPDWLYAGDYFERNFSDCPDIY
UniProt O95848: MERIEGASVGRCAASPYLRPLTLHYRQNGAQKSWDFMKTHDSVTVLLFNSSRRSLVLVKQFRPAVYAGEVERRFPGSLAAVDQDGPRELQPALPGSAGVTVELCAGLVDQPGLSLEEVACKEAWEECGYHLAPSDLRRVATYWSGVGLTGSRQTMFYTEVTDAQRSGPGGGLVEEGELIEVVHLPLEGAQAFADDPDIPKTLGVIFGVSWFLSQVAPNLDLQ
UniProt P53370: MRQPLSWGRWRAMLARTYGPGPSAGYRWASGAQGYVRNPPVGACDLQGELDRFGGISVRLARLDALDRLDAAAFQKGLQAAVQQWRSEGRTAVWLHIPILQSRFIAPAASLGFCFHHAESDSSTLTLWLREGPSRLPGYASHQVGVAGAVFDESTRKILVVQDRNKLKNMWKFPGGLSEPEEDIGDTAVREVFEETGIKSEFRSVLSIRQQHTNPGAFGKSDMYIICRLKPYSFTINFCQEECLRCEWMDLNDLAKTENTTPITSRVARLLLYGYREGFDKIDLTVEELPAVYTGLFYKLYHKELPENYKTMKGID
UniProt Q8N573: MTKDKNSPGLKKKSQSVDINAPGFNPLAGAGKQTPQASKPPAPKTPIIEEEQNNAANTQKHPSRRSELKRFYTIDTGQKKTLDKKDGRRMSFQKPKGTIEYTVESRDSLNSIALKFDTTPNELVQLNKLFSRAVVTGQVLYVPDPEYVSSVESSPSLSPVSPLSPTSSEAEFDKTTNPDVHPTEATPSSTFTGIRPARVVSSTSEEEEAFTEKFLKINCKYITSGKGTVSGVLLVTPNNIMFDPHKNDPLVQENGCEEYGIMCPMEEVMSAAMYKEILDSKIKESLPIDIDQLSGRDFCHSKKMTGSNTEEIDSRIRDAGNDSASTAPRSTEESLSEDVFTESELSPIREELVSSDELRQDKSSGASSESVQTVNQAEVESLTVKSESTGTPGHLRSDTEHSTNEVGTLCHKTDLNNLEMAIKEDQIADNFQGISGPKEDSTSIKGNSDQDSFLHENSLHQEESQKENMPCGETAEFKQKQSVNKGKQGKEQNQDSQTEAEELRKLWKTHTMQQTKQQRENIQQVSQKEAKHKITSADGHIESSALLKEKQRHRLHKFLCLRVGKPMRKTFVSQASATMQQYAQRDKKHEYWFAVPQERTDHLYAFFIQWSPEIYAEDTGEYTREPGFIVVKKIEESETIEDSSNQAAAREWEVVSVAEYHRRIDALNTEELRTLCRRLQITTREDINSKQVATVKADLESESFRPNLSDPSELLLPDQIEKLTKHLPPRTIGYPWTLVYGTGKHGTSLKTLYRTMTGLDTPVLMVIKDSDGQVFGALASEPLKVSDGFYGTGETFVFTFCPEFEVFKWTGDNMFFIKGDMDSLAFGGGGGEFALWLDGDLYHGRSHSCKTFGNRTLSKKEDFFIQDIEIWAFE
UniProt Q5BKU9: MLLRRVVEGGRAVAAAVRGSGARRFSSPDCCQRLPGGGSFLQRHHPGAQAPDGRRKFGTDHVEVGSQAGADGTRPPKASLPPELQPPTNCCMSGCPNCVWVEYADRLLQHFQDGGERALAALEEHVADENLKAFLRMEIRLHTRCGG
UniProt P0C025: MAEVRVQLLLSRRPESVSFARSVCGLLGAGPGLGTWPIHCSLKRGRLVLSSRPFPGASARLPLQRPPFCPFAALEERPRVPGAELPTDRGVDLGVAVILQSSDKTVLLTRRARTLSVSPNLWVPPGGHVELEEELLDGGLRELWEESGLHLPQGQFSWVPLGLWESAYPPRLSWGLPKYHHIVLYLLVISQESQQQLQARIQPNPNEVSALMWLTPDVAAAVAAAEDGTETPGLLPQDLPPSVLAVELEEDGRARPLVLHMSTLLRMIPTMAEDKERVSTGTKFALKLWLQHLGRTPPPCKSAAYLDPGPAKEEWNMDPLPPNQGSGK
UniProt Q8N138: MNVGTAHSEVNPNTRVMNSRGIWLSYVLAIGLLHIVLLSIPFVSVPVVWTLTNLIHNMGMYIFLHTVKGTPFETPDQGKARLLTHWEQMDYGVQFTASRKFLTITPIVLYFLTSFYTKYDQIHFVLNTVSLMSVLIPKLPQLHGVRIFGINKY
UniProt Q9P0S3: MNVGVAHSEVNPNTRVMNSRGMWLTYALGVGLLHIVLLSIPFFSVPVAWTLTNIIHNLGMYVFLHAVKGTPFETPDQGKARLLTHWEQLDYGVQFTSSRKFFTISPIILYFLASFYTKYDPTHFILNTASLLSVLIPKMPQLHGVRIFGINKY
UniProt Q9H6K4: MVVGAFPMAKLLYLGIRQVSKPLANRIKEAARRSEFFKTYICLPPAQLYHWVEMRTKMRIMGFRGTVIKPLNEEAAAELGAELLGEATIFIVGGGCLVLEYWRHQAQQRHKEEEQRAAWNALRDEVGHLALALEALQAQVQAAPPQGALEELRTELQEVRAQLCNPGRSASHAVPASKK
UniProt P47900: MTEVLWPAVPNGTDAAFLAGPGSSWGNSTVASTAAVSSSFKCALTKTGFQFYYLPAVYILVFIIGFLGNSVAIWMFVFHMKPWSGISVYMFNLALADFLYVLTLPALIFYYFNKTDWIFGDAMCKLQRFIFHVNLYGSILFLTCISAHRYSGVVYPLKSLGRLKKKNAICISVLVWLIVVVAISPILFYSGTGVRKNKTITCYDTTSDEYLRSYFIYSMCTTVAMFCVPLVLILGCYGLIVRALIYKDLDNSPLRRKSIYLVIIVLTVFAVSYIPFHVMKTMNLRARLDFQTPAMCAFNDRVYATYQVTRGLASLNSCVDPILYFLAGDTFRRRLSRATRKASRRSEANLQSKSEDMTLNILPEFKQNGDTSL
UniProt Q8WZ82: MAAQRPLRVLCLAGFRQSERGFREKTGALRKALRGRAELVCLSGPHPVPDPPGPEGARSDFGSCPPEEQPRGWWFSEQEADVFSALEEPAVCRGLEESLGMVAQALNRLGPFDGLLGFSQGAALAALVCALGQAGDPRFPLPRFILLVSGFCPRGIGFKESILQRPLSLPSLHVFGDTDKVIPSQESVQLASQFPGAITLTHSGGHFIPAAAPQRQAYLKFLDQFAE

Tests used:
Assay in all cases: log2 fold change, soluble protein after heating vs DMSO (PISA); higher = thermal stabilisation; K562 cells, 10 uM, 30 min; active = over 0.2 and 3.5 SD of the protein, either way, in both replicates (recomputed)
[1] = compound: COC1=CC=C(C=C1)CN2C=CC3=C2C=C(C=C3)C(=O)NO
Procedure, shortened: (§1)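 For each measurement, 10 μM compound was applied for 30 min to K562 cells at 2×10^6 cells/mL. Aliquots were heated for 3 min across 48°C-58°C, pooled, and extracted in PBS with 0.5% NP-40 at 4°C; the supernatant after 21,000xg for 90 min was soluble protein. This was quantified by TMTpro 16plex LC-MS/MS with channel sums equalised, and thermal stability was reported relative to control samples from duplicates, on a log2 fold-change scale.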

filanesib = compound: CON(C)C(=O)N1N=C(c2cc(F)ccc2F)S[C@@]1(CCCN)c1ccccc1 [filanesib]
Procedure, shortened: as §1

[2] = compound: CS(=O)(=O)c1ccc(-c2cnc(N)c(C(=O)Nc3ccccc3)n2)cc1
Procedure, shortened: as §1

crizotinib = compound: C[C@@H](Oc1cc(-c2cnn(C3CCNCC3)c2)cnc1N)c1c(Cl)ccc(F)c1Cl [crizotinib]
Procedure, shortened: as §1

duvelisib = compound: C[C@H](Nc1ncnc2nc[nH]c12)c1cc2cccc(Cl)c2c(=O)n1-c1ccccc1 [duvelisib]
Procedure, shortened: as §1

[3] = compound: Cc1cc(SCc2sc(-c3ccc(C(F)(F)F)cc3)nc2C)ccc1OCC(=O)O
Procedure, shortened: as §1

doramapimod = compound: Cc1ccc(-n2nc(C(C)(C)C)cc2NC(=O)Nc2ccc(OCCN3CCOCC3)c3ccccc23)cc1 [doramapimod]
Procedure, shortened: as §1

ispinesib = compound: Cc1ccc(C(=O)N(CCCN)[C@@H](c2nc3cc(Cl)ccc3c(=O)n2Cc2ccccc2)C(C)C)cc1 [ispinesib]
Procedure, shortened: as §1

alisertib = compound: COc1cc(Nc2ncc3c(n2)-c2ccc(Cl)cc2C(c2c(F)cccc2OC)=NC3)ccc1C(=O)O [alisertib]
Procedure, shortened: as §1

[4] = compound: COc1cccc2cc(-c3nc([C@H]4CC[C@H](C(=O)O)CC4)n4ncnc(N)c34)[nH]c12
Procedure, shortened: as §1

[5] = compound: C[C@@H]1COCCN1C2=NC(=NC(=C2)C3(CC3)S(=O)(=O)C)C4=C5C=CNC5=CC=C4
Procedure, shortened: as §1

tozasertib = compound: Cc1cc(Nc2cc(N3CCN(C)CC3)nc(Sc3ccc(NC(=O)C4CC4)cc3)n2)n[nH]1 [tozasertib]
Procedure, shortened: as §1

zotarolimus = compound: CO[C@H]1C[C@@H]2CC[C@@H](C)[C@@](O)(O2)C(=O)C(=O)N2CCCC[C@H]2C(=O)O[C@H]([C@H](C)C[C@@H]2CC[C@H](n3cnnn3)[C@H](OC)C2)CC(=O)[C@H](C)/C=C(\C)[C@@H](O)[C@@H](OC)C(=O)[C@H](C)C[C@H](C)/C=C/C=C/C=C/1C [zotarolimus]
Procedure, shortened: as §1

idasanutlin = compound: COc1cc(C(=O)O)ccc1NC(=O)[C@@H]1N[C@@H](CC(C)(C)C)[C@](C#N)(c2ccc(Cl)cc2F)[C@H]1c1cccc(Cl)c1F [idasanutlin]
Procedure, shortened: as §1

[6] = compound: COc1cc2nc(-c3cc(F)ccc3O)nc(N[C@@H]3CNC[C@H]3C(C)(C)O)c2cc1OC
Procedure, shortened: as §1

gefitinib = compound: COc1cc2ncnc(Nc3ccc(F)c(Cl)c3)c2cc1OCCCN1CCOCC1 [gefitinib]
Procedure, shortened: as §1

lapatinib = compound: CS(=O)(=O)CCNCc1ccc(-c2ccc3ncnc(Nc4ccc(OCc5cccc(F)c5)c(Cl)c4)c3c2)o1 [lapatinib]
Procedure, shortened: as §1

pictilisib = compound: CS(=O)(=O)N1CCN(Cc2cc3nc(-c4cccc5[nH]ncc45)nc(N4CCOCC4)c3s2)CC1 [pictilisib]
Procedure, shortened: as §1

[7] = compound: C[C@H](C1=CC=C(C=C1)C(=O)NC2=C3C=CNC3=NC=C2)N
Procedure, shortened: as §1

gandotinib = compound: Cc1cc(Nc2cc(CN3CCOCC3)c3nc(C)c(Cc4ccc(Cl)cc4F)n3n2)n[nH]1 [gandotinib]
Procedure, shortened: as §1

## OAS3 (UniProt Q9Y6K5)
[1]
  log2 fold change: inactive: -0.275
filanesib
  log2 fold change: inactive: -0.057
[2]
  log2 fold change: inactive: -0.114
crizotinib
  log2 fold change: inactive: 0.044
duvelisib
  log2 fold change: inactive: 0.099
[3]
  log2 fold change: inactive: -0.044
doramapimod
  log2 fold change: inactive: 0.069
ispinesib
  log2 fold change: inactive: -0.216

## P3H3 (UniProt Q8IVL6)
alisertib
  log2 fold change: inactive: -0.107
[4]
  log2 fold change: inactive: -0.044
[5]
  log2 fold change: inactive: -0.164
tozasertib
  log2 fold change: inactive: -0.361

## NSUN7 (UniProt Q8NE18)
[1]
  log2 fold change: inactive: -0.189
zotarolimus
  log2 fold change: inactive: -0.228
idasanutlin
  log2 fold change: inactive: -0.027
alisertib
  log2 fold change: inactive: 0.123
[6]
  log2 fold change: inactive: 0.207
gefitinib
  log2 fold change: inactive: 0.077
[4]
  log2 fold change: inactive: -0.2
lapatinib
  log2 fold change: inactive: -0.416
pictilisib
  log2 fold change: inactive: 0.163
crizotinib
  log2 fold change: inactive: 0.093
[5]
  log2 fold change: inactive: 0.288
[7]
  log2 fold change: inactive: 0.168
gandotinib
  log2 fold change: inactive: -0.034
tozasertib
  log2 fold change: inactive: -0.042
doramapimod
  log2 fold change: inactive: -0.014
ispinesib
  log2 fold change: inactive: -0.03

## OSBPL2 (UniProt Q9H1P3)
zotarolimus
  log2 fold change: inactive: 0.085
alisertib
  log2 fold change: inactive: -0.019
[6]
  log2 fold change: inactive: -0.187
[4]
  log2 fold change: inactive: -0.042
lapatinib
  log2 fold change: active: 1.57
[7]
  log2 fold change: inactive: 0.124

## NUDT14 (UniProt O95848)
[6]
  log2 fold change: inactive: -0.004
lapatinib
  log2 fold change: inactive: -0.104

## NUDT6 (UniProt P53370)
[1]
  log2 fold change: inactive: 0.017
zotarolimus
  log2 fold change: inactive: -0.173
alisertib
  log2 fold change: inactive: 0.012
[6]
  log2 fold change: inactive: 0.175
gefitinib
  log2 fold change: inactive: -0.025
[4]
  log2 fold change: inactive: -0.084
lapatinib
  log2 fold change: inactive: -0.017
crizotinib
  log2 fold change: inactive: 0.069
[5]
  log2 fold change: inactive: 0.122
[7]
  log2 fold change: inactive: 0.6
[3]
  log2 fold change: inactive: -0.094
doramapimod
  log2 fold change: inactive: -0.127
ispinesib
  log2 fold change: inactive: -0.097

## OXR1 isoform 2 (UniProt Q8N573)
[1]
  log2 fold change: inactive: -0.175
zotarolimus
  log2 fold change: inactive: -0.014
idasanutlin
  log2 fold change: inactive: -0.009
[6]
  log2 fold change: inactive: 0.018
gefitinib
  log2 fold change: inactive: 0.014
lapatinib
  log2 fold change: inactive: -0.061
pictilisib
  log2 fold change: inactive: -0.073
crizotinib
  log2 fold change: inactive: -0.027
[5]
  log2 fold change: inactive: 0.187
[7]
  log2 fold change: inactive: -0.105
gandotinib
  log2 fold change: inactive: -0.225
[3]
  log2 fold change: inactive: 0.043
doramapimod
  log2 fold change: inactive: 0.022
ispinesib
  log2 fold change: inactive: -0.134

## OXLD1 (UniProt Q5BKU9)
alisertib
  log2 fold change: inactive: -0.077
gefitinib
  log2 fold change: inactive: 0.013
[4]
  log2 fold change: inactive: 0.033

## NUDT17 (UniProt P0C025)
filanesib
  log2 fold change: inactive: -0.175
zotarolimus
  log2 fold change: inactive: 0.153
idasanutlin
  log2 fold change: inactive: -0.113
alisertib
  log2 fold change: inactive: 0.028
gefitinib
  log2 fold change: inactive: 0.025
[4]
  log2 fold change: inactive: -0.037
[2]
  log2 fold change: inactive: -0.434
[5]
  log2 fold change: inactive: -0.016
[7]
  log2 fold change: inactive: -0.327
tozasertib
  log2 fold change: inactive: 0.131
ispinesib
  log2 fold change: inactive: 0.125

## ORMDL3 (UniProt Q8N138)
[6]
  log2 fold change: inactive: -0.15
lapatinib
  log2 fold change: inactive: -0.041

## ORMDL1 (UniProt Q9P0S3)
[1]
  log2 fold change: inactive: 0.097
filanesib
  log2 fold change: inactive: -0.025
alisertib
  log2 fold change: inactive: -0.009
[4]
  log2 fold change: inactive: 0.125
[2]
  log2 fold change: inactive: 0.034
crizotinib
  log2 fold change: inactive: -0.13
[5]
  log2 fold change: inactive: 0.211
tozasertib
  log2 fold change: inactive: -0.19
doramapimod
  log2 fold change: inactive: -0.002

## OPA3 isoform 2 (UniProt Q9H6K4)
zotarolimus
  log2 fold change: inactive: -0.066
idasanutlin
  log2 fold change: inactive: -0.153
alisertib
  log2 fold change: inactive: -0.174
[4]
  log2 fold change: inactive: 0.04
[7]
  log2 fold change: inactive: -0.1
duvelisib
  log2 fold change: inactive: -0.044
[3]
  log2 fold change: inactive: 0.025
ispinesib
  log2 fold change: inactive: 0.352

## P2RY1 (UniProt P47900)
idasanutlin
  log2 fold change: inactive: -0.054
alisertib
  log2 fold change: inactive: -0.15
[6]
  log2 fold change: inactive: 0.026
[4]
  log2 fold change: inactive: 0.02
lapatinib
  log2 fold change: inactive: -0.019
pictilisib
  log2 fold change: inactive: -0.1
[5]
  log2 fold change: inactive: -0.005
duvelisib
  log2 fold change: inactive: 0.027
gandotinib
  log2 fold change: inactive: 0.038
[3]
  log2 fold change: inactive: -0.162

## OVCA2 (UniProt Q8WZ82)
[1]
  log2 fold change: inactive: -0.206
idasanutlin
  log2 fold change: inactive: -0.023
alisertib
  log2 fold change: inactive: 0.102
[6]
  log2 fold change: inactive: 0.201
gefitinib
  log2 fold change: inactive: -0.143
[4]
  log2 fold change: inactive: -0.318
lapatinib
  log2 fold change: inactive: -0.014
pictilisib
  log2 fold change: inactive: -0.176
crizotinib
  log2 fold change: inactive: 0.064
gandotinib
  log2 fold change: inactive: -0.232
doramapimod
  log2 fold change: inactive: -0.186
ispinesib
  log2 fold change: inactive: 0.026
